The campaign covered roughly 52,000 sequences. About 210 (0.4%) were called active.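 The calls were made as follows: active = gene whose silencing raises cell survival under the drug, median off-target-corrected z-score across its silencing RNAs 2 or more; inactive = the rest.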 The list shows a part of the results.

The experiment is described as follows: Resistance to Poly (ADP-Ribose) Polymerase inhibitor: Gene Identification via Genome-wide siRNA Screen. Particulars: mouse BRCA2 R2336H ES cells, olaparib, CellTiter-Glo viability; active compounds read high. In a few lines:
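Genome-wide siRNA screen (3 siRNAs/gene, 20 nM) in mouse ES cells carrying hypomorphic BRCA2 R2336H; olaparib 500 nM added 48 h post-transfection, CellTiter-Glo viability 72 h later. Normalized to plate-median negative control; MAD z-scores, gene median, seed-adjusted.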
For the sequence GGCUCAACGGGAUUACUUUTT against Pgd, the z-score was inactive: -0.592.
The same measure for GCCUGUAAUCCCAUCAUCUTT against Taar5: inactive: -0.000944.
For the sequence GGAUAUCAUUUCAUCUUGUTT against Hist1h3f, the z-score was inactive: 2.21.
The same measure for CCUCCUGCCACAUUCUUUCTT against AU022252: inactive: -0.783.
As for GGGCACCUAUUCAGAUACCTT against Mtap2, the z-score is inactive: 0.64.
In the case of “GGUACUCAAUGCAAGAAAUTT against 1500041J02Rik”, the z-score is inactive: 0.35.
Regarding CCAGUUACUAUGAGAAUGUTT against Yars, the z-score was inactive: 0.247.
In the case of GGGUGACUGGAAUGACAUCTT against Galnt2, the z-score is inactive: 0.215.
The same measure for GGCUGUAUUUGGACAAAGCTT against Nxt2: inactive: -1.63.
The figure for “GCAACACAAACACUGGCUATT against D930020B18Rik” is inactive: -1.99; for CGCCUCAUCAUCUCGAUUCTT against Cnga3 it is inactive: -0.593.
The same measure for GGCAAUAUGAAGGAGGUUUTT against Ckm: inactive: -1.64; for GGUUUCUUAGAUUAGCUAGTT against Map3k12: inactive: 1.25; for “GGAUAACAUAACUUUGGAUTT against D19Ertd737e”: inactive: 1.28.
As for GGUCAACACCUUAGAAACUTT against Lyn, the z-score was inactive: -1.05.
The figure for GCCCUCCGAGAAAAACAUCTT against Gjb5 is inactive: 0.324; for CCUACUGGAAAAGAUAAUUTT against Stfa1 it is inactive: 0.692.
Consider GUUGAGGACUUCUUGCUGGTT against Cmar, for which the z-score was inactive: -1.03.
The figure for GCAAAACAGAAUCAUCCUCTT against Taar6 is inactive: 1.49; for GGAAUUUAUGGAUAGAGGATT against BC026432 it is inactive: -0.0536.
The same measure for “GCUACUGCAUUCUCUAUCATT against 1700029I08Rik”: inactive: 0.509; for CGGCUGCAUUUCAACAAGGTT against Snrp1c: inactive: -2.59.
The same measure for CGGCGAGUUCAGAAACAGCTT against Dab2ip: inactive: 1.1; for GCUAUGUAACACACCGCUGTT against AW046014: inactive: 1.61.
With GGAUGUCAGUAAUCAAUAGTT against Oxct1, the z-score is inactive: 0.26.
The same measure for “GGUAACUUUGAACUGAUCCTT against 1700030J22Rik”: inactive: 0.77; for GGAUCUAUGACAAAAGAAGTT against Snx5: inactive: 0.335.
The same measure for “CGCUCAAAAAUGGAUUCAATT against C130052G03Rik”: inactive: 1.27; for CCAGAACGAAUCCCACUGUTT against Cklfsf8: inactive: -2.47.
The figure for CCAGAACUAGCAAUAAAUATT against Noxa1 is inactive: 0.0574.
On to GGUGCUUGGGAAUUUUGAUTT against Gpsm2, for which the z-score is inactive: -0.908.
The same measure for “GGUCAAGCUCUUCUGCCUCTT against 6330414G21Rik”: inactive: -0.832; for GGCUCUUCAACCUCUUACUTT against Ddost: inactive: 0.402.
The same measure for “GGAGAGAUGCCUUUUAAGUTT against 5730403M16Rik”: inactive: 0.0441; for CUCGCUAGAGAAAGACAGATT against Olfr111: inactive: -1.18; for GGGUUCGAUGUUGAAAAAGTT against Lzic: inactive: -0.876.
The figure for GGGAGAGGACCUCAAUGAATT against Mobk1b is inactive: 1.98; for GCAACCGCGUCACAUUGAATT against Bicc1 it is inactive: 0.124; for GCAGAUGGCACAAUAUGAATT against Ppy it is inactive: -0.258.
For the sequence GCUCAUACCUAUCUCAAGGTT against Tnfsf9, the z-score is inactive: 0.63.
The figure for GGUGGAAGUCUCCAAGACATT against Tatdn1 is inactive: 0.948; for GGGAAUGUUCUAUAACUCATT against Prep it is inactive: 0.417; for GGCAUCUCUCCAAUAACCUTT against Fbxw2 it is inactive: -0.731.
Turning to GGACAUAGCAUCUUCACUUTT against Mpp3, the z-score is inactive: -0.506.
The figure for CGACCUGUGGGAAGAUAUUTT against Apoa5 is inactive: 0.999; for “CCAACAUCUGCGUGUUUGCTT against 2810055F11Rik” it is inactive: -0.0242.
The figure for GCAUGUCCUCUAUCUUCUCTT against V1rh8 is inactive: -1.22; for GGAAGAGCACCUCCAGUCATT against Zfp313 it is inactive: -2.84; for GGUAUCAUGAUCACUGUUUTT against Slc30a8 it is inactive: 1.05.
With “CGAGAAUCUGCCUCAAUUGTT against 1110001A12Rik”, the z-score was inactive: 0.417.
The figure for “GGAUAUACAUCUGAAGAUGTT against 4930548G07Rik” is inactive: 0.5; for GGAAGACAGAAAUGAAGAUTT against Enah it is inactive: -1.33.
On to GGCCAAAGAAGAAAGUGACTT against Opn3, for which the z-score is inactive: -0.692.
The same measure for GGUCAGUGACAUUAUCAAUTT against V1rf3: inactive: 2.02; for ACCGGAUCCAUUCACCUACTT against Fxyd1: inactive: 0.186.
The same measure for “GGCUAAUAGACUUAUUAGGTT against 5730403B10Rik”: inactive: 0.736.
The same measure for GGUCCAAUUUUAUAACAGUTT against Dmtf1: inactive: 0.683.
As to CCGUAUCAUUUCACUGCUCTT against Abca16, the z-score is inactive: 1.25.
The figure for “GGAAGAGUUGGAAAUUUACTT against 1110015E22Rik” is inactive: 0.0768; for GGAGGUAUACAGUAAGGAGTT against Fbxo32 it is inactive: -0.0151; for GCGGGCCAUAAAGAGACAUTT against Timm17a it is inactive: 0.0558.
On to CGUCCAUCAAACGAUCACCTT against Alox5, for which the z-score was inactive: 0.425.
For the sequence “CCCUACUCGAAUUUAUAGCTT against 1810017F10Rik”, the z-score is inactive: 0.231.
As for CGAGGUCAAUAUCAUUCCATT against Serpinb11, the z-score is inactive: 0.759.
The figure for “GGCAAACCUCAAUGAGUUUTT against 4933402B14Rik” is inactive: 1.05; for “GCUUCAGCCAUUUCACCUUTT against 1500026D16Rik” it is inactive: 0.938.
The figure for “GGCUUAGUAAGUGCAAAUATT against 2010208K18Rik” is inactive: -1.15.
Regarding GCUCAUAGGCCUCAUCGUUTT against Piwil1, the z-score is inactive: -0.0313.
The same measure for GGAACUGCUAAUCAACCAUTT against Zmynd10: inactive: -1.55; for GGUCAUUGAUGGCUUUUUUTT against Mus81: inactive: -0.876; for “CCAAUAUGGUUUGUGGACUTT against 3010021M21Rik”: inactive: 1.23.
The same measure for GGACACAGAUAGAAAUACUTT against Glo1: inactive: 0.208.
The same measure for GGAAUCCUCAUUCUGGAUGTT against Abcg8: inactive: 0.783; for GGGCCACAGCUUAAUACUGTT against Ptov1: inactive: -1.1; for GGACAGAAAGAUUGUGAUCTT against Arhgap12: inactive: 0.949.
On to CGGUCAAGGACAGGAAGUGTT against Eif4b, for which the z-score was inactive: -1.15.
Consider GGAACAACUGAGAAGCACCTT against Hist1h2bc, for which the z-score was inactive: 0.551.
The same measure for ACCUUUGUCCUUUUGUUGUTT against Defb15: inactive: -1.23.
Consider GGCACUUUGAUUGUACAAUTT against Dyrk4, for which the z-score was inactive: 0.391.
The figure for GGGAACAGCCUUCACAAUGTT against Pomt2 is inactive: -0.953; for GCCCGAUUUGGCCUAAGUGTT against BC029214 it is inactive: -2.77; for “GCAGUUCGUAAAAAGGAAATT against 2810429O05Rik” it is inactive: -0.0848.
The figure for “GCUAUUUGCACUGAAAUAGTT against B230365F16Rik” is inactive: 0.931; for GGAUGUGCGAUAUAAACCATT against Prlpb it is inactive: -1.03.
The same measure for GGUCUUUGUCCUCAUUUUCTT against Olfr1203: inactive: 0.784; for GGGUUACACAUCAUUUUGGTT against Golph3: inactive: 0.872; for GGCCAUUACCCAUGAGACUTT against Cd63: inactive: -1.44.
With “CCACUUGCGUGUACCACUUTT against 9530008L14Rik”, the z-score is inactive: -0.429.
The same measure for GCUCCAAAUUAAAUUUUGCTT against Isgf3g: inactive: 0.286.
As to GGGAAAAUUCCAGAAUUGUTT against Serpinb9c, the z-score was inactive: 0.98.
On to GGAUCUUUCUUUUCUCUCUTT against Rab6b, for which the z-score is inactive: -0.123.
The same measure for “GGAUUUAUUUCCGAUUCGATT against A530023G15Rik”: inactive: -0.846; for GGGAAACUGUAUUAAUCUCTT against Foxc1: inactive: -0.267.
As to “GCCGCUAUGUUGAUGGACUTT against 5730454B08Rik”, the z-score was inactive: -0.156.
The figure for CCGGGAAUAUGACCAGUACTT against Cd3g is inactive: -0.45; for CCACACUGAGGACUAUAUUTT against Cstf1 it is inactive: 0.623.
As for GGAACAAAGAGGUUCUAGGTT against Olfr202, the z-score is inactive: 0.188.
The figure for CCAGGUGUAUAAUAAGAUGTT against Atp8b3 is inactive: 0.949; for GGAGCCUCACUUCUAUCUUTT against Foxk1 it is inactive: -0.584.
The figure for “CCUGCUCAGGACGACUUUUTT against 2010016F14Rik” is inactive: -0.453; for GCGGUAUCCUAGCUGUGAATT against Gm1100 it is inactive: -0.265.
For GGAUUCAAAGAAAAUCCUGTT against B3galt2, the z-score was inactive: 0.0642.
Take GCUCUCAGGUCCUAAGAGATT against AU044919: the z-score was inactive: 0.494.
